Measurements from “University of Dundee, Small-Polar-MMV Screening Library” (2021), ChEMBL document CHEMBL3988442.

By UniProt entry, the sequences of proteins in these tests, tags left out.
UniProt E9BF75, entry or part of it: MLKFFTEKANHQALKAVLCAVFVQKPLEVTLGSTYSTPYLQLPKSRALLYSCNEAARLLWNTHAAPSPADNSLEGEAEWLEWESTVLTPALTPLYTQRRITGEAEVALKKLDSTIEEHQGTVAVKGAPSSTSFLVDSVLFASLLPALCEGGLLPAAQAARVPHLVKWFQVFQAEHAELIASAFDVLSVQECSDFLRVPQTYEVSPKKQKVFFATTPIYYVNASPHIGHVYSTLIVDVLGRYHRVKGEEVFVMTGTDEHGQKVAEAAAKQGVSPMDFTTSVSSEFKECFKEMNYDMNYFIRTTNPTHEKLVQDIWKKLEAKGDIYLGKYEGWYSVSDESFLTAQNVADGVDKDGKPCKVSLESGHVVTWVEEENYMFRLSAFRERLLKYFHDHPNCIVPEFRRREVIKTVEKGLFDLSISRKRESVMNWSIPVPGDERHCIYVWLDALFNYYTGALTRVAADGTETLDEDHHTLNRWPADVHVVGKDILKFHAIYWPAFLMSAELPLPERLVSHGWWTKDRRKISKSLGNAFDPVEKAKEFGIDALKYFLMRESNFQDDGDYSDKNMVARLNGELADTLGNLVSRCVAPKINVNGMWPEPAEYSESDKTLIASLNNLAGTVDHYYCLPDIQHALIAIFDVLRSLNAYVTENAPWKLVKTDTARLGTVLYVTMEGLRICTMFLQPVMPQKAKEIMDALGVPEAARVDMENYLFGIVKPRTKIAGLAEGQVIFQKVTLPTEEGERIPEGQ

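Methionyl-tRNA synthetase (putative), Leishmania donovani (UniProt E9BF75). Primary screen of methionyl-tRNA synthetase; the read-out is not stated. The test concentration is not given. The values are filed as inhibition. Of about 68,000 compounds tested this way, about 24 (0.035%) reached 50% or more in at least one test.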

Results are percentages, as filed. The record does not define 0% and 100%; most values in the screen are far below 50% and negative numbers occur (in some assays of this library far below -100). The compounds are a random part of those screened.

Cc1ccc2ncn(CC(O)CN3CCC(C)CC3)c(=O)c2c1 (centres undefined) read 8.844%. With COc1cc(CNC(=O)NCCCF)cc(Br)c1OC the screen gave 8.78%. With CSCc1cc(F)ccc1CNC(=O)N1CCCC1 the screen gave 6.859%. For CCOCCCNC(=O)CN(c1cc(C)cc(C)c1)S(C)(=O)=O the result was 11.43%.

For c1ccc2c(N3CCOCC3)cnnc2c1 the result was 16.54%. With Cc1cc(C)c2ncn(CC(C)(C)CO)c(=O)c2c1 the screen gave 9.507%. With Cc1cccc2c1NC1(CCOCC1)NC2=O the screen gave 17.27%. Result for NC(=O)CN1CCC(Nc2ccnc3ccc(Cl)cc23)CC1 was 8.807%.

O=C(C1CCC2(CCN(c3nncs3)CC2)CO1)N1CCCC1 (centres undefined) gave 14.6%. Cc1nc(C)n(CC2CCCN2CCCc2nc3ccccc3o2)n1 (centres undefined) read 26.11%. Result for O=C(O)C1(n2ccc(-c3ccco3)n2)CCN(Cc2cccs2)CC1 was 12.88%. O=C(CN1CCCC(O)C1)NC(=O)NCc1cccs1 (centres undefined) gave 7.746%.

COCCC(=O)N1CCC2(CC1)CC(c1ccccc1)CN(C)C2 (centres undefined) read 8.148%. COc1ccc(Cl)cc1C(C(=O)O)N1CCSCC1 (centres undefined) read 12.61%. For Cc1ccc(S(=O)(=O)N2CCC(Oc3ccccn3)CC2)c(C)c1 the result was 7.194%. Cc1nnc(N2CCC(CS(N)(=O)=O)CC2)c(C#N)c1C read 6.25%.

CN(C)c1ccc(C2CC(=O)Nc3c2cnn3Cc2ccco2)cc1 (centres undefined) gave 17.31%. Cc1nc(O)cc([C@@H]2CN(C(=O)C3CC3)C[C@H]2c2ccccc2F)n1 gave 8.438%. For Cc1cccc(COC[C@@]23CCC[C@@H]2CN(C(=O)Cc2ccco2)C3)n1 the result was 23.53%. CCOCC(=O)N1CCC(Oc2ccc(C(F)(F)F)cn2)CC1 read 17.65%.

CCCN1CCC(c2nc3ccc(NCc4ccccc4)cn3n2)CC1 read 10.64%. CCNC(=O)[C@@H]1C[C@@H](N)CN1Cc1ccc2cccc(Cl)c2n1 gave 4.935%. For CCc1cn[nH]c1C1CCN(c2cc(C)c3cccc(OC)c3n2)CC1 the result was 30.69%. CC(C)Oc1ccc(C(=O)N2CC[C@H](O)[C@@H](n3ccnc3)CC2)cc1 gave 11.86%.

For N#Cc1cccc(S(=O)(=O)NC2CCN(Cc3ccccc3)C2=O)c1 (centres undefined) the result was 10.8%. Result for CCN1CCCC(C)(C(=O)NCc2nncn2CCc2ccccc2)C1 (centres undefined) was 15.26%. With c1ncn(CC2CN(CC3CCCCC3)CCO2)n1 (centres undefined) the screen gave 16.94%. For COc1ccccc1CCN1CCCC(CN(C)Cc2c[nH]c(C)n2)C1 (centres undefined) the result was 9.172%.

Cn1nc(CN2CCCN(C3CCCC3)CC2)c2c(Cl)cccc21 read 22.73%. Result for COc1ccc(CN2CCCCC2Cn2nc(C)nc2C)cc1F (centres undefined) was 20.22%. CN(C)CCOCc1cncc2c1CCN(C1CCOCC1)C2 read -0.5464%. CN(C)C(=O)N1CC2(CCNCC2)c2cc(F)ccc21 gave 17.46%.

Result for O=C(Cn1cc(Cl)cn1)N1CCCC(c2ccn[nH]2)C1 (centres undefined) was 2.581%. Cc1nc(C)n(CC2CN(CC(=O)NC3CCCC3)CCO2)n1 (centres undefined) gave 20.23%. CN(Cc1cc(F)ccc1F)CC(C)(CO)CO read 7.219%. For CC(C)(C)c1ccn(C2(C(=O)O)CCN(c3nccc(N)n3)CC2)n1 the result was 7.08%.

CC(C)C[C@H](Nc1nc(C2CCCC2)nc2c1cnn2C)C(N)=O gave 8.541%.

5 of the entries, repeated:

{"compound": "Cc1nc(C)n(CC2CN(CC(=O)NC3CCCC3)CCO2)n1", "stereo": "centres undefined", "Inhibition": 20.23}
{"compound": "Cc1ccc(S(=O)(=O)N2CCC(Oc3ccccn3)CC2)c(C)c1", "Inhibition": 7.194}
{"compound": "CCN1CCCC(C)(C(=O)NCc2nncn2CCc2ccccc2)C1", "stereo": "centres undefined", "Inhibition": 15.26}
{"compound": "CN(C)C(=O)N1CC2(CCNCC2)c2cc(F)ccc21", "Inhibition": 17.46}
{"compound": "CCCN1CCC(c2nc3ccc(NCc4ccccc4)cn3n2)CC1", "Inhibition": 10.64}